This assay can be described thus: qHTS Assay for Lipid Storage Modulators in Drosophila S3 Cells.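 On cell number change: cells counted by Cell Tracker Red CMTPX staining in the red channel.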 The following applies: BODIPY lipid droplet fluorescence, 18-24 h; for cell number change: measured here: cell count max response, cells fed with added oleic acid. In a few lines:
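Drosophila S3 cells got compounds at several concentrations plus oleic acid (400 uM solution). Laser-scanning cytometry with 488 nm excitation read lipid droplets at 500-530 nm and cells at 575-640 nm. Percent activity was relative to 20 uM Triacsin C.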
A general note: Quantitative high-throughput screening tests each substance at several concentrations.

Where [1] appears, read: measured here: lipid fluorescence (Fed channel) AC50, cells fed with added oleic acid.
Where [2] appears, read: measured here: cell number channel AC50, cells fed with added oleic acid.

This is one part of the list. These are further read-outs of the screen, such as a control signal, another cell line or another target. No call is given for them. Most of these compounds were active or inconclusive in the main read-out, so they are no random draw. Potencies come from curve fits of mixed quality, noted in brackets.

A word on the AC50: it is the concentration giving half of the maximal activity seen. Read a high AC50 as activity only at high concentration. As for `COc1ccc(C)cc1N(C)C(=O)c1coc(=O)c2ccccc12`, the cell number change is -0.212%. The AC50 under setting [1] was 29.1 µM [rising, single point].

For the compound `COc1ccccc1NS(=O)(=O)c1ccc2ccccc2c1`, the cell number change was 5.56%. Regarding `Cc1cc(C(=O)COC(=O)CNC(=O)c2ccc(F)cc2)c(C)n1Cc1ccco1`, under setting [2], the AC50 is 0.58 µM [rising, single point]. Regarding `Cc1ccc(CCC(=O)Nc2ccc([N+](=O)[O-])cc2Cl)o1`, the cell number change is -7.14%. Moreover, under setting [1], the AC50 is 29.1 µM [falling, single point]. For the compound `O=C1C=C(c2cccc(Br)c2)C[C@@H](c2ccc(F)cc2)C1`, the cell number change is -12.2%. Besides, the concentration at half-maximal activity (AC50) under setting [2] is 0.058 µM [falling, full curve, poor fit]. Also, the concentration at half-maximal activity (AC50) under setting [1] is 29.1 µM [falling, single point]. Take `COc1ccc(CNc2cc(C)ccn2)c(O)c1`: the cell number change was -15.2%. Under setting [1], the AC50 was 29.1 µM [falling, single point]. Take `O=C(COC(=O)c1ccc(S(=O)(=O)NCc2ccco2)cc1)NCC1CCCCC1`: under setting [1], the AC50 is 18.4 µM [falling, partial curve]. On to `CCNc1ccc(C2(O)C(=O)c3ccccc3C2=O)cc1`, for which the cell number change amounted to 29.2%. The AC50 under setting [1] is 4.61 µM [falling, single point].

For `CCOc1nc(Nc2ccc(OC)cc2)nc(N2CCOCC2)n1`, the cell number change was found to be 27.4%. For the same compound, the AC50 under setting [1] is 0.326 µM [rising, full curve]. As to `Cc1oc2c(c(C)cc3oc(=O)c(CC(=O)NCC(=O)NCC(=O)NCC(C)O)c(C)c32)c1C` (stereo unspecified), the cell number change was determined as 7.04%. For the same compound, the AC50 under setting [1] was 29.1 µM [rising, partial curve]. Consider `O=C(Nc1cc(C(F)(F)F)ccc1N1CCCC1)C1=COCCO1`, for which the cell number change is -44.3%. Also, the AC50 under setting [2] was 29.1 µM [falling, single point]. The AC50 under setting [1] was 29.1 µM [falling, single point]. On to `O=C(Nc1ccc(S(=O)(=O)NC2=NCCCCC2)cc1)c1ccc(=O)[nH]c1`, for which the cell number change was -102%.

For `COCCN1C(=O)C(=O)/C(=C(/O)c2ccc3c(c2)OCCO3)C1c1ccc(C(=O)OC)cc1` (stereo unspecified), the cell number change was determined as 13.6%. In addition, the AC50 under setting [1] was 0.731 µM [falling, single point]. For the compound `COC(=O)[C@H](CCSC)NC(=O)NCc1cccs1`, the cell number change worked out at 1.11%. Moreover, the AC50 under setting [1] was 1.16 µM [falling, full curve]. `COc1ccc2oc(=O)c(C(=O)N3CCCc4ccccc43)cc2c1`: the cell number change is 67.7%. In addition, the concentration at half-maximal activity (AC50) under setting [2] is 13 µM [rising, partial curve]. Besides, under setting [1], the concentration at half-maximal activity (AC50) is 18.4 µM [rising, partial curve]. Regarding `CCOc1cccc(CN2CCCC(N3CCN(c4cccc(Cl)c4)CC3)C2)c1O` (stereo unspecified), the cell number change turned out to be 5.22%. The AC50 under setting [1] is 6.51 µM [rising, single point]. On to `C=CCNC(=S)N/N=C(\C)c1ccc(-n2ccnc2)cc1`, for which the cell number change was 34.4%. Also, the AC50 under setting [1] was 2.91 µM [rising, full curve]. Regarding `O=C(CSc1nncs1)Nc1cc(-c2ccccc2)nn1-c1ccccc1`, the cell number change is 6.82%. For the same compound, the AC50 under setting [1] is 0.291 µM [rising, full curve]. As to `COc1ccc(CNC(=O)C2CC(c3ccc(OC)cc3)=NO2)cc1` (stereo unspecified), the cell number change is -51.5%. Moreover, the AC50 under setting [2] was 9.2 µM [falling, partial curve, poor fit]. Further, the AC50 under setting [1] is 0.0164 µM [falling, full curve, poor fit]. For `CCOC(=O)c1c(C)[nH]c(C(=O)OCC(=O)N(C)C2CCS(=O)(=O)C2)c1C` (stereo unspecified), the cell number change came out at 0.34%. Besides, the AC50 under setting [1] is 0.326 µM [rising, full curve, poor fit]. Consider `Cn1c(=O)c2cc(S(=O)(=O)Nc3ccc4c(c3)OCO4)ccc2n(C)c1=O`, for which the AC50 under setting [2] was 4.11 µM [rising, single point].

For `Cc1ccc2[nH]c3c(NCc4ccco4)ncnc3c2c1`, the cell number change is -35.4%. Besides, the AC50 under setting [2] is 8.2 µM [falling, partial curve]. Further, the AC50 under setting [1] is 0.146 µM [rising, full curve, poor fit]. In the case of `CCOc1ccc(NC(=O)COC(=O)C2C3CC4OC(=O)C2C4C3)cc1` (stereo unspecified), the cell number change was -12.4%. Turning to `CC(Oc1ccc(F)cc1)C(=O)Nc1cc(S(=O)(=O)N2CCOCC2)ccc1N1CCCC1` (stereo unspecified), under setting [2], the AC50 is 7.31 µM [falling, single point]. Turning to `CC(=O)NNc1nc(-c2ccccc2)cs1`, the cell number change came to 0.294%. Further, under setting [2], the AC50 is 4.61 µM [falling, single point]. In addition, the AC50 under setting [1] was 4.11 µM [falling, single point].

Take `O=C(CCCn1c(=S)[nH]c2cc3c(cc2c1=O)OCO3)N1CCc2ccccc2C1`: the cell number change was -69.9%. Also, the AC50 under setting [2] is 29.1 µM [falling, single point]. With `O=C1Nc2ccccc2C1=Nc1cccc([N+](=O)[O-])c1`, the cell number change was 12.9%. As for `CCOc1ccc(COC(=O)C2CC(=O)N(CCc3ccccc3)C2)cc1OC` (stereo unspecified), the cell number change came out at 1.01%. Also, the AC50 under setting [2] is 3.26 µM [rising, single point]. With `COc1ccc(S(=O)(=O)NCCCCNS(=O)(=O)c2ccc(OC)cc2)cc1`, the cell number change is -32.3%. For the same compound, under setting [2], the AC50 was 23.1 µM [falling, single point]. Besides, under setting [1], the AC50 was 18.4 µM [rising, single point]. For `CCOC(=O)c1ccc(S(=O)(=O)N2CCN(C(=O)c3cc(=O)c4ccccc4o3)CC2)cc1`, the cell number change worked out at 24.9%. The AC50 under setting [2] was 0.731 µM [rising, full curve, poor fit]. As for `O=C(CSc1ccc2ccccc2n1)N/N=C/c1ccccc1O`, the cell number change was -10.7%. Moreover, the AC50 under setting [1] is 1.64 µM [rising, partial curve].

For `Cc1nc2ncnn2c(C)c1Cc1ccccc1Cl`, the cell number change was found to be 1.84%. Take `O=C(Nc1ccon1)c1sc2ccccc2c1Cl`: the AC50 under setting [1] was 0.58 µM [rising, single point]. Consider `COc1cc(OC)cc(OCC(O)Cn2cnc3cc(C)c(C)cc32)c1` (stereo unspecified), for which the cell number change came to 2.92%. Under setting [1], the AC50 is 8.2 µM [falling, single point].

On to `OC(CN1CCN(C(c2ccccc2)c2ccccc2)CC1)c1ccc(Br)cc1` (stereo unspecified), for which the cell number change was -56.5%. Besides, the AC50 under setting [2] is 16.4 µM [falling, partial curve]. Further, the AC50 under setting [1] was 13 µM [falling, partial curve]. With `CCOc1cc(C(=O)Nc2ccc(F)cc2)cc(Br)c1OC`, the cell number change came to 19.2%. The AC50 under setting [1] is 29.1 µM [rising, single point]. As to `CCOc1ccc(C(=S)N2CCCC2)cc1OCC`, the cell number change was 1.57%.

On to `COc1ccc(S(=O)(=O)Nc2ccccc2C(=O)N2CCOCC2)cc1Br`, for which the cell number change was -21.8%. For the compound `CC(CNC(=O)c1ccc(N)cc1)NC(=O)c1ccc(N)cc1` (stereo unspecified), the cell number change was -18.1%. Further, the AC50 under setting [1] was 0.092 µM [falling, full curve, poor fit]. With `CCC(=O)c1ccc(OCC(=O)NCCc2ccccn2)cc1`, the cell number change is -36%. Further, the half-maximal activity concentration (AC50) under setting [2] is 32.6 µM [falling, single point]. Take `COc1cc(/C=N/NC(=O)Cc2cccs2)c([N+](=O)[O-])cc1OC`: the cell number change was -22.8%. The AC50 under setting [2] is 0.092 µM [rising, full curve, poor fit].

In the case of `O=C(O)C1CCCCC1C(=O)NCCCCc1ccccc1` (stereo unspecified), the cell number change was found to be 11.2%. Under setting [1], the AC50 was 3.26 µM [rising, full curve, poor fit].

Take `COc1ccc(CNC(=O)c2cnc(C)cn2)cc1`: the cell number change was -1.74%. In the case of `O=C(Cn1c(CO)nc2ccccc21)NC1CCCCCC1`, the cell number change was 24.2%. Regarding `Cc1cc(C(=O)OCC(=O)Nc2cc(S(=O)(=O)N(C)C)ccc2Cl)c2ccccc2n1`, the cell number change worked out at 82.1%. The AC50 under setting [2] is 32.6 µM [rising, partial curve, poor fit]. Besides, the AC50 under setting [1] is 0.00461 µM [rising, full curve, poor fit]. Regarding `Nc1nonc1-n1nnc(C(=O)N/N=C/C2CC=CCC2)c1CSc1ccccc1` (stereo unspecified), the cell number change amounted to 20.8%. In addition, the AC50 under setting [1] is 2.06 µM [rising, full curve, poor fit]. On to `O=C(N[C@@H](Cc1ccccc1)C(=O)OCc1ccccc1)c1nc[nH]c1C(=O)NC1CCNCC1`, for which the cell number change is 11.6%. Besides, the AC50 under setting [2] was 4.11 µM [falling, single point]. Further, the half-maximal activity concentration (AC50) under setting [1] was 6.51 µM [falling, single point].

As for `Cc1nn(-c2ccccc2)c(Cl)c1/C=N/NS(=O)(=O)c1ccc(Br)cc1`, the AC50 under setting [1] is 29.1 µM [rising, single point]. As to `CCCN(C(=O)c1ccc(-n2cncn2)c([N+](=O)[O-])c1)C1CCS(=O)(=O)C1` (stereo unspecified), the cell number change was -6.61%. Moreover, the AC50 under setting [1] was 25.9 µM [falling, single point].

Turning to `Cc1cccc(C)c1N(CC(=O)NN=C1CCCCCC1)S(C)(=O)=O`, under setting [1], the AC50 was 6.51 µM [falling, single point]. Turning to `Cc1ccc(O)c(-c2[nH]ncc2C(=O)c2ccc(Cl)cc2)c1`, the cell number change came out at 23.4%. For the same compound, under setting [1], the AC50 is 0.651 µM [rising, partial curve, poor fit]. As to `O=C(Nc1cc(Cl)cc(Cl)c1)C1CCCC1`, the AC50 under setting [1] was 23.1 µM [falling, single point]. Take `CCOC(=O)COc1ccc(C(=O)c2ccccc2)c(O)c1`: the cell number change is -28.7%. As to `O=Cc1c(NCc2ccccc2)c2ccccc2[nH]c1=O`, under setting [1], the AC50 was 6.51 µM [falling, single point]. In the case of `C/C(=N\NC(=O)c1cccc(Br)c1)c1ccccn1`, the cell number change was -30.2%. Besides, the AC50 under setting [2] was 2.06 µM [falling, full curve]. Besides, under setting [1], the AC50 is 3.26 µM [falling, full curve]. Turning to `COc1ccccc1NC(=O)C1CCCN(S(=O)(=O)c2cccc3nsnc23)C1` (stereo unspecified), the AC50 under setting [2] was 5.8 µM [rising, single point] and the AC50 under setting [1] is 13 µM [rising, partial curve, poor fit]. Take `O=C(CN1C2=NCCCN2c2ccccc21)c1ccc2c(c1)OCO2`: the cell number change was determined as 8.8%. The AC50 under setting [1] is 0.461 µM [rising, partial curve]. For the compound `CCOc1ccc(S(=O)(=O)N2CCN(Cc3ccc4c(c3)OCO4)CC2)cc1OCC`, the cell number change is 20.5%. Consider `COc1ccc(CCNS(=O)(=O)c2cn(C)cn2)cc1OC`, for which the cell number change came out at 18%. Moreover, the AC50 under setting [1] was 16.4 µM [rising, partial curve].

`COc1ccc(CN(CCC(c2ccco2)C(C)C)C(C)=O)cc1OC` (stereo unspecified): the cell number change amounted to 14.4%. Besides, the AC50 under setting [1] was 5.8 µM [rising, full curve, poor fit]. Consider `CCOCCn1c(CN2CCN(c3ccc(F)cc3)CC2)nc2c1c(=O)n(C)c(=O)n2C`, for which the cell number change was 2.06%. Besides, the AC50 under setting [1] is 29.1 µM [falling, single point]. On to `Cc1ccc2nc(-c3ccc(NC(=O)COCC(=O)O)cc3)sc2c1`, for which the cell number change was -41.3%. Moreover, the AC50 under setting [2] was 29.1 µM [falling, single point]. The AC50 under setting [1] was 23.1 µM [falling, partial curve, poor fit].

For the origin of these results see PubChem BioAssay AID2685 (National Center for Advancing Translational Sciences (NCATS), 2010).
